For the experiment, the target named is SHP2 (Homo sapiens (Human), UniProt Q06124). The experiment is described as follows: Assay for the inhibitory effect on the SHP2 enzyme (DiFMUP substrate, fluorescence). The conditions noted are these: read-out: Enzymatic Effect (IC50 on SHP2); SHP2 activated with SHP-2 activated peptide; DiFMUP 10 μM. How it is done: 1× Assay buffer was prepared. A compound to be tested was diluted with DMSO solvent to a stock concentration of 10 mM. The compound to be tested was first diluted to an intermediate concentration of 1000 μM and then further diluted in a 3-fold gradient using DMSO. Therefore, the intermediate gradient dilution concentration of the compound to be tested was: 1000 μM, 3-fold dilution, 11 gradients. 100 nL of each concentration of the compound in the 384-well LDV echo plate was transferred to a new 384-well ELISA plate (assay plate) (corning, Cat #4514) by the Echo550 instrument. The final concentration of the compound to be tested was 10 μM, 3-fold dilution, 11 gradients in duplicate after 10 μL of the reaction reagent was added. The final DMSO concentration was 1%. For both negative and positive control wells, 100 nL DMSO would be transferred.
A mixed liquor of 2× working SHP2 reagent (0.4 nM) and 0.5 μM SHP-2 activated peptide (BPS bioscience #79319-2) was prepared with 1× enzyme buffer. […] Read the plate at the excitation/emission wavelength of 358/455 nm after the ELISA plate was placed on the Spark machine.
The RLU values were collected from Spark and the inhibition rate was calculated with the RLU values. […]

By UniProt entry, the sequences of proteins in these tests, tags left out.
UniProt Q06124, whole entry: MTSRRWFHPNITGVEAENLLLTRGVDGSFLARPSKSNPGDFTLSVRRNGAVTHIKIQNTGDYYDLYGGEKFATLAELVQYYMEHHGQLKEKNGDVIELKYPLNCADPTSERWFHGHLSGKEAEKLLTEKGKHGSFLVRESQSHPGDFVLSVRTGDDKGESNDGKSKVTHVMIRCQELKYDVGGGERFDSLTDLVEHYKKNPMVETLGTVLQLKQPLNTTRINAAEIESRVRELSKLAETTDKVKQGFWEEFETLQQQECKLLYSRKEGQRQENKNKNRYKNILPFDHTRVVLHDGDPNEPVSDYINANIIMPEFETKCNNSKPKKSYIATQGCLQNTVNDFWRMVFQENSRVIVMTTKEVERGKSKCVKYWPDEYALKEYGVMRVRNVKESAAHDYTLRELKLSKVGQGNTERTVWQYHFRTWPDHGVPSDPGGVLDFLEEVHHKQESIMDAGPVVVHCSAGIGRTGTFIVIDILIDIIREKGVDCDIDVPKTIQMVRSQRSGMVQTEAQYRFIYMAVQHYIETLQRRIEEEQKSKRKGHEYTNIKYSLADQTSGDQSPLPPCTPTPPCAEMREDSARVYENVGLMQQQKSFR

Structures were worked out from names or drawings and are uncertain. Some results are limits rather than exact numbers.

Usually IC50 stands for the concentration needed to halve the response being measured. For `[2H][C@@]1(N)c2ccccc2CC12CCN(c1nc(N)c(Sc3cccc(-c4ncco4)c3Cl)nc1C(C)=O)CC2`, the IC50 was under 20 nM.
